Assay results as given in paper doi:10.1101/2024.09.30.615192.
No constants are given. Whether binding was seen depends on the method and setting. Binding seen in cells or lysates may run through a third protein. Here binding means that the protein was enriched with, or labelled near, the bait; the list need not be complete.

By UniProt entry, the sequences of proteins in these tests, tags left out. Residues count along the entry.
UniProt P35613, residues 22-385: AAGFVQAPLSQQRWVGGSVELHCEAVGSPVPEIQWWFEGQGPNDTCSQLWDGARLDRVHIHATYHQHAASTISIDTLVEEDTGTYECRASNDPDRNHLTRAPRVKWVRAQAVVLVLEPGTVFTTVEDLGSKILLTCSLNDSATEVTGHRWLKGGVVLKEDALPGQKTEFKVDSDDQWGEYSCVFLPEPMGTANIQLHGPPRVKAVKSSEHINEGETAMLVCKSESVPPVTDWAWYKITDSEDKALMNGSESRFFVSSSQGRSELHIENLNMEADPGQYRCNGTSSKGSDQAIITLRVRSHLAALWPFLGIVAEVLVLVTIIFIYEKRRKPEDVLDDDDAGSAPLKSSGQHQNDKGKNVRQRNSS

Key:
Assay in all cases: affinity purification with mass spectrometry
SLC16A11 (human) = biological target: T1, SLC16A11 (human) (UniProt Q8NCK7)
T1 sequence: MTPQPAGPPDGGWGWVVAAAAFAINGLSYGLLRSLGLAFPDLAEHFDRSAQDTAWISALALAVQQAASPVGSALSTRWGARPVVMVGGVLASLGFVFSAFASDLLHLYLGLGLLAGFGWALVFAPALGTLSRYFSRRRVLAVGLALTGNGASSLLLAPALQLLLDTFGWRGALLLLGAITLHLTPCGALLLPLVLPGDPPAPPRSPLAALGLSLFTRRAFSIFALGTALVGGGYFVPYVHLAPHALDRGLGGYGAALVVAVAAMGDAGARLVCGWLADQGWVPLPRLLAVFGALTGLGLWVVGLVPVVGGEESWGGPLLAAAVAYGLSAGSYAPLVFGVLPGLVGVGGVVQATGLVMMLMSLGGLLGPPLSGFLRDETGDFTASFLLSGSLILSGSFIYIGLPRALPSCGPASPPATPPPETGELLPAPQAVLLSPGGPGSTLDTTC

SLCO1B1 (human) = biological target: T2, SLCO1B1 (human) (UniProt Q9Y6L6)
T2 sequence: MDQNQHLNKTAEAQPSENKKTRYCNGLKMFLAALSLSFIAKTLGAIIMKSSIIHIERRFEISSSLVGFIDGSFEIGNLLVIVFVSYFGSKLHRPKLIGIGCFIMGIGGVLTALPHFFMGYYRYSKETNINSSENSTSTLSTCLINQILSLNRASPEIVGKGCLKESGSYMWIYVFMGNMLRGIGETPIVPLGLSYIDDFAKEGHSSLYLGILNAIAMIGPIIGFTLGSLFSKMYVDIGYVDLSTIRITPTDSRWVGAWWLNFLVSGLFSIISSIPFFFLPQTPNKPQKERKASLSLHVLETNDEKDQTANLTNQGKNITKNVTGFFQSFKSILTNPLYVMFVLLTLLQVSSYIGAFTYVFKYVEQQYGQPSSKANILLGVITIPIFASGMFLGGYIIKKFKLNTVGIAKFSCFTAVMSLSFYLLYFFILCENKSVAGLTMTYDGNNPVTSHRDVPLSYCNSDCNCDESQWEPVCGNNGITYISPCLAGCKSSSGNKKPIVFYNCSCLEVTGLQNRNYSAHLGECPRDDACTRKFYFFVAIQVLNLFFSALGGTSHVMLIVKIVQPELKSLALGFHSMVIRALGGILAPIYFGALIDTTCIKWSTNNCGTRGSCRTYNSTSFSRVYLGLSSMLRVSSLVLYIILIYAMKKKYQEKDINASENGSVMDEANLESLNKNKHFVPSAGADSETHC

SLC19A1 (human) = biological target: T3, SLC19A1 (human) (UniProt P41440)
T3 sequence: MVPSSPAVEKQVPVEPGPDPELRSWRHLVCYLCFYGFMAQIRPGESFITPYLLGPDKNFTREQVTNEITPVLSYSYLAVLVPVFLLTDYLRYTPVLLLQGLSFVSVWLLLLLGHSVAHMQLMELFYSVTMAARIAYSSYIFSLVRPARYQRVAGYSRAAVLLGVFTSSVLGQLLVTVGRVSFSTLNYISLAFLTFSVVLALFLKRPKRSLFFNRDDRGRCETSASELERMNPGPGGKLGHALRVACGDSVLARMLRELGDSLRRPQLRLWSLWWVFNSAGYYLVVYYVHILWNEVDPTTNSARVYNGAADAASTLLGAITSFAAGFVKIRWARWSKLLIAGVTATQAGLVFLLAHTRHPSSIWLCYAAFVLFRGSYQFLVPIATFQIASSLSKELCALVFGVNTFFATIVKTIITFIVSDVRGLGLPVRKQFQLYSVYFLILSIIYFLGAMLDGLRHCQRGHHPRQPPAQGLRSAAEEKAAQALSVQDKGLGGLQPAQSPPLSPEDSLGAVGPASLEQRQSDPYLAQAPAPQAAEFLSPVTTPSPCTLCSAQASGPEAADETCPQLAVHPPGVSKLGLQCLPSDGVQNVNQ

Measured: binding

Basigin (from UniProt P35613 22-385)
binds: all assays above
